From paper PMC5006505
No constants are given. Whether binding was seen depends on the method and setting. Binding seen in cells or lysates may run through a third protein. Some binding calls cover weakened binding; strength is not graded here.

The chains behind the UniProt entries cited, without tags or fusion partners. Where a name states a change or a piece, a line headed by the entry shows the natural chain unless it says otherwise.
UniProt Q04637: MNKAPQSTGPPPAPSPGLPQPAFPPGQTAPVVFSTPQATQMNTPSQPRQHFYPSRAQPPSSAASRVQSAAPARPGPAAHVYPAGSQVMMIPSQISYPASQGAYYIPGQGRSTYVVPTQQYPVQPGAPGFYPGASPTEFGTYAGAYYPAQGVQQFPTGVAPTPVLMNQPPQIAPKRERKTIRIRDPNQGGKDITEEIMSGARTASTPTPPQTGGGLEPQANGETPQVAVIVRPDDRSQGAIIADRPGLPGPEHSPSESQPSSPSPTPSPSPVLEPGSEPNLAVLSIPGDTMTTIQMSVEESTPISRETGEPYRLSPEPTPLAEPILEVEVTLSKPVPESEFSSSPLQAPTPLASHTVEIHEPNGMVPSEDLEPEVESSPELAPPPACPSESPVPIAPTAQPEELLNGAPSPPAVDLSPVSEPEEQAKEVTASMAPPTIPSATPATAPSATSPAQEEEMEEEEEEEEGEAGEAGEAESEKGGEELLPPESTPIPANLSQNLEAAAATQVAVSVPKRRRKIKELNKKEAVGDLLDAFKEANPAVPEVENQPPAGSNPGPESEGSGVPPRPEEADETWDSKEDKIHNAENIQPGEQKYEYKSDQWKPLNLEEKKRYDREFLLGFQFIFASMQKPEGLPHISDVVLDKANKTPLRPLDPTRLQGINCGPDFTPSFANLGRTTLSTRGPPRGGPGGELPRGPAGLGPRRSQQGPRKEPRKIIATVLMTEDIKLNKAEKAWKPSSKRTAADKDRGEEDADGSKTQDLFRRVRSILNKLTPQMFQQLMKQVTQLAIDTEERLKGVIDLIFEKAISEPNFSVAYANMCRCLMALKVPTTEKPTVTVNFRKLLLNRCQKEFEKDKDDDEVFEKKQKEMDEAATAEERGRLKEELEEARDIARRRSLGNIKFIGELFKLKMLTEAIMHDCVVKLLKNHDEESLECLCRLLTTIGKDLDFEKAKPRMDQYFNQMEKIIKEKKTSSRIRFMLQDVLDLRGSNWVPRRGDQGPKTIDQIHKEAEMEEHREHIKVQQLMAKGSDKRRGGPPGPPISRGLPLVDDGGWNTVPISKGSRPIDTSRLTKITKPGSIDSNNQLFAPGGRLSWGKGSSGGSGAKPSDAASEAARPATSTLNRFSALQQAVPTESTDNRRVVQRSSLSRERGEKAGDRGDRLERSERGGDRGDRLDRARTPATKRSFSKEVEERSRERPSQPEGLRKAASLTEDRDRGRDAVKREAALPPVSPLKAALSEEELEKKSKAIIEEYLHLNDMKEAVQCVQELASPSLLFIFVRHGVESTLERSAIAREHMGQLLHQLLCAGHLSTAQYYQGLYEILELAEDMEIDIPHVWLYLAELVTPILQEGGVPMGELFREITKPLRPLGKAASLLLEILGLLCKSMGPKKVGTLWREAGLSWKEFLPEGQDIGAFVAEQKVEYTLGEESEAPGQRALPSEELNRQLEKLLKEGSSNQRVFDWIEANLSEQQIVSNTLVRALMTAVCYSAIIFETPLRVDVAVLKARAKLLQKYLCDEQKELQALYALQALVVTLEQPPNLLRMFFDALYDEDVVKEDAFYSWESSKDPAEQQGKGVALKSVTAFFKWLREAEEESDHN
UniProt Q8N5X7: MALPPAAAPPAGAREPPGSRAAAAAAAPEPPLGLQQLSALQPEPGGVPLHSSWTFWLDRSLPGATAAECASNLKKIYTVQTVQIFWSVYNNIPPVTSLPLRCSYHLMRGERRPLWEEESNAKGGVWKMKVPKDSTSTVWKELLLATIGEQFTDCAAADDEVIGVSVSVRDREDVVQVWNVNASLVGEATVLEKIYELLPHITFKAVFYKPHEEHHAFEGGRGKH

Tests used:
[1] = target: eukaryotic translation initiation factor 4G (eIF4G1, isoform 1) (human (endogenous in HEK293)) (UniProt Q04637); assay: co-IP; reverse immunoprecipitation with endogenous eIF4G as bait, GFP-eIF4E fusions as prey; data not shown
GFP-eIF4E3_A (human) = GFP-eIF4E3_A (human) (UniProt Q8N5X7); assay: co-IP; GFP-Trap_A beads on lysates of HEK293 cells producing GFP-eIF4E1_1, GFP-eIF4E3_A, GFP-eIF4E3_B or GFP alone; western blot with anti-eIF4G, anti-PABP, anti-GFP and anti-β-actin antibodies

| binding [1] | binding (GFP-eIF4E3_A (human)) | Substance |
| --- | --- | --- |
| binds |  | GFP-eIF4E3_A (from UniProt Q8N5X7-1 1-224) |
|  | binds | eukaryotic translation initiation factor 4G (eIF4G1, isoform 1) (from UniProt Q04637 1-1599) |
